Data: patent US10952999B2, “Inhibitor of cyclin-dependent kinase CDK9” (GENFLEET THERAPEUTICS (SHANGHAI) INC., priority 2017, dated 2021)
At least one structure is not confirmed: it was looked up by name or label, or the drawing left a doubt.

Experiments:
Format in all cases: cell-based
[1] = system: hamster lung cell CHL; experiment: Cancer cell growth, Cell Titer-Glo cell viability assay, 72 hours; conditions: CHL cells
Text: (§1) In the examples, we used acute myelocytic leukemia (AML) OCI-AML-3, acute promyelocytic leukemia cell line NB-4, MDS-RAEB (myelodysplastic syndrome-excess blasts type) cell line SKM-1, human leukemia cell Nomo-1, acute myeloid leukemia cell line MOLM14, acute myeloid leukemia cell line MOLM13, acute myeloid leukemia cell line MV4-11, acute myeloid leukemia cell line HL-60, acute myeloid leukemia cell line OCI-AML-2, histiocytic lymphoma U-937, acute B cell leukemia cell line MEC-1, acute B cell leukemia cell line MEC-2, acute megakaryoblastic leukemia CMK, hamster lung cell CHL, hamster ovary cell CHO, human non-small cell lung cancer cell H1975, human non-small cell lung cancer cell H358, human small cell lung cancer cell H209, human lung adenocarcinoma cell H1395, human non-small cell lung cancer cell PC-9, human lung cancer cell H3122, human non-small cell lung cancer cell H2122, human non-small cell lung cancer cell H1915, human lung adenocarcinoma cell H1355, human non-small cell lung cancer cell HCC827, human breast cancer cell MDA-MB-231, human breast cancer cell MDA-MB-468, human breast cancer cell MCF-7, human breast cancer cell T47D, human breast cancer cell SK-Br-3, the above cells were purchased from ATCC. […]

[2] = system: hamster ovary cell CHO; experiment: as above; conditions: CHO cells
Text: as §1

[3] = system: human non-small cell lung cancer cells, human small cell lung cancer cells, lung adenocarcinoma cells, and breast cancer cells; experiment: Cancer cell growth, cells of cancer type other than hematological cancer as a panel; conditions: lung and breast cancer cells of table 3
Text: as §1

With `CCc1cnn2c(NCc3ccc[n+]([O-])c3)cc(N3CCCC[C@H]3CCO)nc12` [Dinaciclib, reference compound] the “inhibitory effect on normal cell CHL (in words)” value [1] was “certain inhibitory effects” and the “inhibitory effect on normal cell CHO (in words)” value [2] was “certain inhibitory effects”.
`CC(=O)c1c(C)c2cnc(Nc3ccc(N4CCNCC4)cn3)nc2n(C2CCCC2)c1=O` [Palbociclib, reference compound] was tested, and the “inhibitory effects on cancer cells tested (in words)” value [3] was “no obvious inhibition”.
